# This is one part of the list.
# Amino acid sequences for entries named in this document (tags omitted).
# UniProt Q0JBA9, entry or part of it: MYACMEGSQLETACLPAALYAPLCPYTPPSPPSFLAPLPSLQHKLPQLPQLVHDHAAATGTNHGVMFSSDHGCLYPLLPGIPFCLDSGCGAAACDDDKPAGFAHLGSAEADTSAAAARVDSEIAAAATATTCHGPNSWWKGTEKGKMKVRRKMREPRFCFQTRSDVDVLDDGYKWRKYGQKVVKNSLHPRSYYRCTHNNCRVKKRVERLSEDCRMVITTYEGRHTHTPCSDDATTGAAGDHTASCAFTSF
# Target: OsWRKY34 (Oryza sativa, UniProt Q0JBA9 1-250)
# Test: protein-binding microarray (RPBM); PBS, 2% BSA, 51.3 ng/ul salmon testes DNA, 50 uM zinc acetate, 200 nM TF, 25 C, 1 h; high values mean tight binding
# Conditions: protein: recombinant; tags: N-terminal polyhistidine and DsRed monomer fusion (pET32a); label: CyDye5-dUTP incorporated in the synthesized complementary strand; 3' TTTTT single-stranded linker to array surface; dsDNA, one strand shown
# Outline: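 Ni–NTA purification followed expression in E. coli BL21-CodonPlus of transcription factors fused N-terminally to a polyhistidine tag and DsRed. At 200 nM in PBS with 2% BSA, salmon testes DNA and 50 µM zinc acetate, the protein was incubated for 1 h at 25 °C with a custom Agilent array that had been primer-extended with Cy5-dUTP and blocked with 2% BSA. After washing, the array was read on an Axon 4000B scanner. The binding signal is per-feature fluorescence intensity in arbitrary units.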
row,Sequence,binding signal
1,TTGTATTCATTTGGCTGCCATGAGGGACCTTTTGCCATTTCGGAGTCACCTAGTGCAG,9420 fluorescence intensity (a.u.)
2,TGTCACTCACGTGAGTTGACCGTGTGTTGACTGTTGCTAGCGGAGTCACCTAGTGCAG,10800 fluorescence intensity (a.u.)
3,GGACCTTATGCTGTGTGTTATGAAAATTTCTTCAGTGACTCGGAGTCACCTAGTGCAG,9490 fluorescence intensity (a.u.)
4,GCTCGTTCCTCCAACGATCTTGCCTGGCCACATTCGCCATCGGAGTCACCTAGTGCAG,8290 fluorescence intensity (a.u.)
5,TCATATTCCGTTTCAGCTTCTTCTTCAAGCTTGGCACATTCGGAGTCACCTAGTGCAG,8450 fluorescence intensity (a.u.)
6,CCACACACGCCTCTCCCCACCAACGGCAACCCATCGCGTCCGGAGTCACCTAGTGCAG,8100 fluorescence intensity (a.u.)
7,TCATGTGTCTTACTTGGTCCCACCATTTTCCACATACTCTCGGAGTCACCTAGTGCAG,8570 fluorescence intensity (a.u.)
8,TGGATCTCATCTCGCTATCTATCTTAGCTTTGCTTGCAACCGGAGTCACCTAGTGCAG,11500 fluorescence intensity (a.u.)
9,CCACTCAATCCCAGATCCGAATCCCACCTCTCCGTCTCATCGGAGTCACCTAGTGCAG,9510 fluorescence intensity (a.u.)
10,GTGGTATATTTCTTCTTTGATGGGACCTGGCTTATTTCTCCGGAGTCACCTAGTGCAG,9020 fluorescence intensity (a.u.)
11,TCTCTCTCTCTCTCTCTCTCTCTCTCTCTCTCTCTCTTCTCGGAGTCACCTAGTGCAG,10600 fluorescence intensity (a.u.)
12,TCTTGTATTCTCCACTAGTCTTGGGTCATCCATTCTTCAGCGGAGTCACCTAGTGCAG,8550 fluorescence intensity (a.u.)
13,TTTATATCATCTGGATGGGAGGGTTCTGCAACTGATGCTACGGAGTCACCTAGTGCAG,8810 fluorescence intensity (a.u.)
14,GTTTCACCTGCCACGCCAGCCGAACTCCCTCTCACGCTTTCGGAGTCACCTAGTGCAG,10300 fluorescence intensity (a.u.)
15,CCGCCTCGAGCGCACCCTCTCTCCTGCTCGTTGTGCCGTTCGGAGTCACCTAGTGCAG,8030 fluorescence intensity (a.u.)
16,GTAGTTGTGTGTATGGGTGTTTCCTTCTCTTCTTTCTCTTCGGAGTCACCTAGTGCAG,9910 fluorescence intensity (a.u.)
17,ATTTTATTGTTGCGGTTGCCAATCAACAACGACGTCATTTCGGAGTCACCTAGTGCAG,9550 fluorescence intensity (a.u.)
18,TCCCCGTCTATCCATGCTCCCGCTCCACTTGCGCCCCACACGGAGTCACCTAGTGCAG,9840 fluorescence intensity (a.u.)
19,CCGCCGCCGCCGCCACTCCTCGATTTTTCTCCCGCAACTCCGGAGTCACCTAGTGCAG,8610 fluorescence intensity (a.u.)
20,AAACTATCCCACAATTTCTTTGTTTTTGGTTGTTCTGTTTCGGAGTCACCTAGTGCAG,10400 fluorescence intensity (a.u.)
21,TCCTTTCTCTCTCTATTAAACCCACACACACACACACACCCGGAGTCACCTAGTGCAG,8700 fluorescence intensity (a.u.)

row,Sequence,binding signal
1,ACGCCGCCGCCGCCGCCCTTGGACCCCGCCGTCATCTCCTCGGAGTCACCTAGTGCAG,9150 fluorescence intensity (a.u.)
2,AATTCTTCTGCGGCACATGGCTTCGTCGCGGCCTCACTCACGGAGTCACCTAGTGCAG,8980 fluorescence intensity (a.u.)
3,AACTGTTTCACCTGTGGCCTACCTTTATTAAGCATACTTTCGGAGTCACCTAGTGCAG,8280 fluorescence intensity (a.u.)
4,AAAACTGGCTCTCTTTCACAAGACATTCTCCATTTTCTTTCGGAGTCACCTAGTGCAG,8450 fluorescence intensity (a.u.)
5,GTATGTGCCACGTCATCCAAAACCGGCCACAATACTGTCGCGGAGTCACCTAGTGCAG,8130 fluorescence intensity (a.u.)
6,TGCTGGATTGTATTGATGTGTGTGCTTACCTAGTATAAATCGGAGTCACCTAGTGCAG,9300 fluorescence intensity (a.u.)
7,GGGGAGGGCAGTGGGCCCGTGGCATCGTGCTTTGGGAGCGCGGAGTCACCTAGTGCAG,9000 fluorescence intensity (a.u.)
8,TAATGATAAACTATTTCTACCGGTTCATTCATATTTTATTCGGAGTCACCTAGTGCAG,8780 fluorescence intensity (a.u.)
9,TTCTCTTCATAACGAAGGTAGCGAGATCGTTTCCATTTGTCGGAGTCACCTAGTGCAG,8440 fluorescence intensity (a.u.)
10,ACCACCACCACCGAGTTACCCAACCGTTTCACCTATATAACGGAGTCACCTAGTGCAG,9420 fluorescence intensity (a.u.)
11,TCAAAAAGCATCTCCCGACGTCGATTCCCAGCATCTCCTTCGGAGTCACCTAGTGCAG,8380 fluorescence intensity (a.u.)
12,AGCAGCTGTCCTAGTGTTCTCATTTGTCCATTTAGCATAACGGAGTCACCTAGTGCAG,9340 fluorescence intensity (a.u.)
13,CTGGACAGTGCTTGCCATCTCATGTTAACCTACTTGCTTCCGGAGTCACCTAGTGCAG,10300 fluorescence intensity (a.u.)
14,AGCTGGGCCGTATCCTGTATTCATGTGGGCTTTCTTGCAACGGAGTCACCTAGTGCAG,9240 fluorescence intensity (a.u.)
15,TCAATCAAAGTTCAGCCTTTTGCCACTGACAATAATTTTCCGGAGTCACCTAGTGCAG,8910 fluorescence intensity (a.u.)
16,GAACTCTTCTTTATTTTCTTTTGCTAATTTCAGATTTATTCGGAGTCACCTAGTGCAG,8680 fluorescence intensity (a.u.)
17,AAAAAAAAACGACGGACGGAGCAACACCACTCCGTCTGCCCGGAGTCACCTAGTGCAG,8600 fluorescence intensity (a.u.)
18,GGGGATCAGGAGGGATGGGGATTGGGGAGACGAGTGGATGCGGAGTCACCTAGTGCAG,8330 fluorescence intensity (a.u.)
19,AGAAAATATAGTGCTACTCCGTATCTCGATATCCTTTTTGCGGAGTCACCTAGTGCAG,8480 fluorescence intensity (a.u.)
20,TGCCAAAAACGCCTCAAAACGCGCCGCCGCCTTTGTTTCCCGGAGTCACCTAGTGCAG,8040 fluorescence intensity (a.u.)
21,AAATTAACACAACTACTGACCTCATTTCCTCATTGATTATCGGAGTCACCTAGTGCAG,10400 fluorescence intensity (a.u.)

# Eleven consecutive records from above, for reference:
row,Sequence,binding signal
11,TCTCTCTCTCTCTCTCTCTCTCTCTCTCTCTCTCTCTTCTCGGAGTCACCTAGTGCAG,10600 fluorescence intensity (a.u.)
12,TCTTGTATTCTCCACTAGTCTTGGGTCATCCATTCTTCAGCGGAGTCACCTAGTGCAG,8550 fluorescence intensity (a.u.)
13,TTTATATCATCTGGATGGGAGGGTTCTGCAACTGATGCTACGGAGTCACCTAGTGCAG,8810 fluorescence intensity (a.u.)
14,GTTTCACCTGCCACGCCAGCCGAACTCCCTCTCACGCTTTCGGAGTCACCTAGTGCAG,10300 fluorescence intensity (a.u.)
15,CCGCCTCGAGCGCACCCTCTCTCCTGCTCGTTGTGCCGTTCGGAGTCACCTAGTGCAG,8030 fluorescence intensity (a.u.)
16,GTAGTTGTGTGTATGGGTGTTTCCTTCTCTTCTTTCTCTTCGGAGTCACCTAGTGCAG,9910 fluorescence intensity (a.u.)
17,ATTTTATTGTTGCGGTTGCCAATCAACAACGACGTCATTTCGGAGTCACCTAGTGCAG,9550 fluorescence intensity (a.u.)
18,TCCCCGTCTATCCATGCTCCCGCTCCACTTGCGCCCCACACGGAGTCACCTAGTGCAG,9840 fluorescence intensity (a.u.)
19,CCGCCGCCGCCGCCACTCCTCGATTTTTCTCCCGCAACTCCGGAGTCACCTAGTGCAG,8610 fluorescence intensity (a.u.)
20,AAACTATCCCACAATTTCTTTGTTTTTGGTTGTTCTGTTTCGGAGTCACCTAGTGCAG,10400 fluorescence intensity (a.u.)
21,TCCTTTCTCTCTCTATTAAACCCACACACACACACACACCCGGAGTCACCTAGTGCAG,8700 fluorescence intensity (a.u.)

# Reference: PMC7819943, “Rice protein-binding microarrays: a tool to detect cis-acting elements near promoter regions in rice”
